From US20090111753A1, “Nogo-A Polypeptide Fragments, Variant Nogo Receptor-1 Polypeptides, and Uses Thereof” (Yale University, priority 2004, published 2009) come the findings set out here.

This data set in a line: SDS-PAGE and blot of NgR mutants with anti-NgR antibodies. Details: key: Mutants with expression level similar to WT NgR were labeled as “y”. The following applies: whole cell lysate of COS-7 cells expressing NgR mutants.

Changes are numbered by the printed parent chain.

B1: 220, 223, 224: human NgR1 mutant, listed residues mutated to alanine (protein)
chain: CPGACVCYNEPKVTTSCPQQGLQAVPVGIPAASQRIFLHGNRISHVPAASFRACRNLTILWLHSNVLARIDAAAFTGLALLEQLDLSDNAQLRSVDPATFHGLGRLHTLHLDRCGLQELGPGLFRGLAALQYLYLQDNALQALPDDTFRDLGNLTHLFLHGNRISSVPERAFRGLHSLDRLLLHQNRVAHVHPAAFAALGRLMTLYLFANNLSALPTEALAPLRALQYLRLNDNPWVCDCRARPLWAWLQKFRGSSSEVPCSLPQRLAGRDLKRLAANDLQGCAVATGPYHPIWTGRATDEEPLGLPKCCQPDAADKASVLEPGRPASAGNALKGRVPPGDSPPGNGSGPRHINDSPFGTLPGSAEPPLTAVRPEGSEPPGFPTSGPRRRPGCSRKNRTRSHCRLGQAGSGGGGTGDSEGSGALPSLTCSLTPLGLALVLWTVLGPC
As for B1, the “NgR band Western” value was “y”.

B2: 63, 65, 87, 89: human NgR1 mutant, listed residues mutated to alanine (protein)
chain: B1 chain with F37A, H39A, W61A, H63A, A194H, A197R, A198D
As to B2, the “NgR band Western” value is given as “y”.

B3: human NgR1 alanine mutant 211, 213, 237, 256, 259, 284 (receptor)
chain: B1 chain with Q185A, R187A, A194H, A197R, A198D, N211A, R230A, D233A, E258A
With B3, the “NgR band Western” value is reported as “y”.

B4: 237, 256, 284: human NgR1 mutant, listed residues mutated to alanine (protein)
chain: B1 chain with A194H, A197R, A198D, N211A, R230A, E258A
For B4, the “NgR band Western” value is listed as “y”.

B5: 61, 108, 131: human NgR1 mutant, listed residues mutated to alanine (protein)
chain: B1 chain with R35A, E82A, R105A, A194H, A197R, A198D
Turning to B5, the “NgR band Western” value is reported as “y”.

B6: 256, 259, 284: human NgR1 mutant, listed residues mutated to alanine (protein)
chain: B1 chain with A194H, A197R, A198D, R230A, D233A, E258A
With B6, the “NgR band Western” value is “y”.

B7: 237, 256, 259: human NgR1 mutant, listed residues mutated to alanine (protein)
chain: B1 chain with A194H, A197R, A198D, N211A, R230A, D233A
For the molecule B7, the “NgR band Western” value was “y”.

B8: human NgR1 alanine mutant 189, 191, 211, 213, 237, 256, 259, 284 (receptor)
chain: CPGACVCYNEPKVTTSCPQQGLQAVPVGIPAASQRIFLHGNRISHVPAASFRACRNLTILWLHSNVLARIDAAAFTGLALLEQLDLSDNAQLRSVDPATFHGLGRLHTLHLDRCGLQELGPGLFRGLAALQYLYLQDNALQALPDDTFRDLGNLTHLFLHGNAIASVPERAFRGLHSLDRLLLHANAVAHVHPHAFRDLGRLMTLYLFANALSALPTEALAPLRALQYLALNANPWVCDCRARPLWAWLQKFRGSSSAVPCSLPQRLAGRDLKRLAANDLQGCAVATGPYHPIWTGRATDEEPLGLPKCCQPDAADKASVLEPGRPASAGNALKGRVPPGDSPPGNGSGPRHINDSPFGTLPGSAEPPLTAVRPEGSEPPGFPTSGPRRRPGCSRKNRTRSHCRLGQAGSGGGGTGDSEGSGALPSLTCSLTPLGLALVLWTVLGPC
Regarding B8, the “NgR band Western” value is reported as “y”.

B9: WT: wild type human NgR1 expressed in COS-7 cells (protein, UniProt Q9BZR6 27-447, looked up)
Reticulon-4 receptor: CPGACVCYNEPKVTTSCPQQGLQAVPVGIPAASQRIFLHGNRISHVPAASFRACRNLTILWLHSNVLARIDAAAFTGLALLEQLDLSDNAQLRSVDPATFHGLGRLHTLHLDRCGLQELGPGLFRGLAALQYLYLQDNALQALPDDTFRDLGNLTHLFLHGNRISSVPERAFRGLHSLDRLLLHQNRVAHVHPHAFRDLGRLMTLYLFANNLSALPTEALAPLRALQYLRLNDNPWVCDCRARPLWAWLQKFRGSSSEVPCSLPQRLAGRDLKRLAANDLQGCAVATGPYHPIWTGRATDEEPLGLPKCCQPDAADKASVLEPGRPASAGNALKGRVPPGDSPPGNGSGPRHINDSPFGTLPGSAEPPLTAVRPEGSEPPGFPTSGPRRRPGCSRKNRTRSHCRLGQAGSGGGGTGDSEGS
B9: the “NgR band Western” value is “y”.
